# From paper PMC2877716, “Genome-Wide Identification of Calcium-Response Factor (CaRF) Binding Sites Predicts a Role in Regulation of Neuronal Signaling Pathways”
# Construct, isoform or probe ends are uncertain for at least one entry. A weaker result is weaker than the reference pair of the same experiment. Where a protein sequence is shown, tags need not be part of it. For part of these data: At least one verdict was read from the data and is not stated in words by the source.
# Columns and labels:
# [1] = biological target: T1, CaRF (TNT) (Homo sapiens) (UniProt Q8N187); assay: competition with a labelled probe; settings: lower affinity than cCaRE, 50-150-fold unlabeled CaRE1; EMSA: 2 uL TNT or purified CaRF with 50 fmol 32P probe, 6% non-denaturing gel; competitors 50-150-fold excess, 30 min pre-incubation; protein translated in vitro; residues 1-725; protein details: N-terminal FLAG (DYKDDDDK); label: 32P when probe
# T1 sequence (looked up): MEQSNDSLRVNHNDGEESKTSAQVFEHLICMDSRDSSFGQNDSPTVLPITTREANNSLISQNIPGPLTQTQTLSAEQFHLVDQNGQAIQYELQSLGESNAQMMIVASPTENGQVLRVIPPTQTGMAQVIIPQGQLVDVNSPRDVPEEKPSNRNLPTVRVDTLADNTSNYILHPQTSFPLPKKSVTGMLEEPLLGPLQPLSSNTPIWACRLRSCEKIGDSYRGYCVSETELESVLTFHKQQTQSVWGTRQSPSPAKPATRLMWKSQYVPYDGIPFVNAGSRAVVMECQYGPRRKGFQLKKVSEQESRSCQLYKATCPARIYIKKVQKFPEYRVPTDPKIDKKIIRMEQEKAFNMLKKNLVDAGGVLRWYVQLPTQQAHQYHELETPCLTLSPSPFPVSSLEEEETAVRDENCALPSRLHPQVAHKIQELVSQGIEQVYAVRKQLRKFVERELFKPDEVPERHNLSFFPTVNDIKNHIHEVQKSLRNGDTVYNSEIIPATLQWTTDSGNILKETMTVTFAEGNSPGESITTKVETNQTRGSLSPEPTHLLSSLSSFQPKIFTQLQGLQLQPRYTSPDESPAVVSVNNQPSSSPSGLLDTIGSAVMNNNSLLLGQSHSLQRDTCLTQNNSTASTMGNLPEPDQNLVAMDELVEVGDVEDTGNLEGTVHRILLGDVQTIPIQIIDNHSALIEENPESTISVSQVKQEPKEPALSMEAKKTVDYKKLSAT
# [2] = biological target: T2, recombinant CaRF (Figs 5 and 6) (UniProt Q8VHI4); assay: competition with a labelled probe; settings: cCaRE probe, 100-fold excess, EMSA: 2 uL TNT or purified CaRF with 50 fmol 32P probe, 6% non-denaturing gel, competitors 50-150-fold excess, 30 min pre-incubation, recombinant protein
# T2 sequence (looked up, limits assumed): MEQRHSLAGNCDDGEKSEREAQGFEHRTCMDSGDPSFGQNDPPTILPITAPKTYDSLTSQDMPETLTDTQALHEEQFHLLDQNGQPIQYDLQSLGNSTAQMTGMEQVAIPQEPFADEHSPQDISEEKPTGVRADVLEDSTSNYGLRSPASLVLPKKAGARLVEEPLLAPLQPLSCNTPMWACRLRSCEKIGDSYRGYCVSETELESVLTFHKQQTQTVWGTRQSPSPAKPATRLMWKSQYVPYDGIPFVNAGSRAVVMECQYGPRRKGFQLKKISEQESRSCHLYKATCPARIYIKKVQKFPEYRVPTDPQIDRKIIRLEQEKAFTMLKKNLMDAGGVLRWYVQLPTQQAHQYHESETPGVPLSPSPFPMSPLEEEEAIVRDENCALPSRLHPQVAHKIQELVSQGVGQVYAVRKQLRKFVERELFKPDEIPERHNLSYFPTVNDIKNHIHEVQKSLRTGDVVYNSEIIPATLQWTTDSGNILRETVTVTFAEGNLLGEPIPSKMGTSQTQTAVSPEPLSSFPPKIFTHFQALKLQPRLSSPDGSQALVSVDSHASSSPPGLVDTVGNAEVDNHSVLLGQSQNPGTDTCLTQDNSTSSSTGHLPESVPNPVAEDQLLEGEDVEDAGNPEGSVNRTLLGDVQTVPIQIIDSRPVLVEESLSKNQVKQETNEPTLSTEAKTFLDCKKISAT
sequence,measurement,setting,value
GAGTGTCTATTTCGAGGCAGAGGAGG (double strand) [CaRE1],binding result,[1],binds more weakly
GCCTCGGAGCCAAGACGAGGTTGAGTA (double strand) [CaRF1],binding result,[2]; competes less than CaRF2,binds more weakly
GCCTCGGAGCCAAGACGAGGTTGAGTAGTCTCGTTTTGAATTTTCTCC (double strand) [CaRF1+2],binding result,[2],binds
